Laboratory results: PubChem BioAssay AID652272 (Drosophila RNAi Screening Center, 2013)
The screen tested about 21,000 reagents; this is an unselected part of those with a known target gene and a result. Over the whole deposit, 503 (2.4%) were called active. 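Raw plate light values, not normalised; calls rest on replicate z-scores that were not deposited; hits include reporter decreases as well as increases.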 Names joined by + are all predicted targets of the reagent. The record does not give: the amount of reagent, the time to read-out.

Aim: 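Finding fly genes that regulate Hedgehog signal transduction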 (primary screen)
System: Drosophila clone 8 (Cl8) cells
Reagents: long dsRNA against Drosophila genes
Detection: 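Firefly light from a Hedgehog-responsive ptc promoter reporter and Renilla reference light, both read on a plate reader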
Direction: firefly Hh reporter signal: higher = more ptc reporter light; Renilla reference signal: higher = more Renilla control light
Active means: 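Hit when the z-score averaged over two replicates is under -2 or over +3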
Calls: active = hit: reporter lowered or raised; inactive = not a hit

gene | amplicon | firefly Hh reporter signal, replicate 1 | firefly Hh reporter signal, replicate 2 | firefly Hh reporter signal, replicate 3 | Renilla reference signal, replicate 1 | Renilla reference signal, replicate 2 | call
CG13545 (GeneID 37675) | DRSC04187 | 1.33e5 | 74876 | – | 3563 | 5194 | inactive
wge (GeneID 42687) | DRSC15246 | 1.34e5 | 1.04e5 | – | 6985 | 5351 | inactive
wge (GeneID 42687) | DRSC15672 | 5.37e5 | 81370 | – | 29656 | 2891 | inactive
SIFaR (GeneID 42530) | DRSC13467 | 60824 | 1.44e5 | – | 13211 | 3552 | inactive
SIFaR (GeneID 42530) | DRSC14266 | 5.08e5 | 2.18e5 | – | 26588 | 5299 | inactive
Swip-1 (GeneID 35158) | DRSC02083 | 1.45e5 | 1.42e5 | – | 5366 | 5424 | inactive
Swip-1 (GeneID 35158) | DRSC02084 | 1.23e5 | 44658 | – | 3169 | 4641 | inactive
CG13248 (GeneID 40254) | DRSC11696 | 1.05e5 | 1.11e5 | – | 3588 | 3075 | inactive
CG34309 (GeneID 5740636) | DRSC14838 | 1.28e5 | 82505 | – | 3572 | 1920 | inactive
Or2a (GeneID 31207) | DRSC18690 | 74832 | 1.99e5 | – | 1450 | 7842 | inactive
Mppe (GeneID 36285) | DRSC07296 | 57216 | 55346 | – | 3186 | 2113 | inactive
Ggamma30A (GeneID 45234) | DRSC02715 | 78608 | 48192 | – | 2472 | 4387 | inactive
Ggamma30A (GeneID 45234) | DRSC03331 | 83796 | 44931 | – | 2933 | 4699 | inactive
CaBP1 (GeneID 34976) | DRSC01984 | 61610 | 63152 | – | 2873 | 2925 | inactive
CG13065 (GeneID 39786) | DRSC09948 | 1.14e5 | – | – | 5203 | 3392 | inactive
Ir51a (GeneID 3771848) | DRSC06256 | 99946 | 58176 | – | 2929 | 4496 | inactive
Rad1 + Sws1 | DRSC00778 | 1.24e5 | 99489 | – | 2858 | 2427 | inactive
Cpr50Cb (GeneID 36525) | DRSC06975 | 92397 | 64840 | – | 2233 | 5746 | inactive
Cpr56F (GeneID 37299) | DRSC07326 | 82201 | 42992 | – | 2160 | 3088 | inactive
Pex10 (GeneID 38182) | DRSC08599 | 1.31e5 | 7.34e5 | 1.32e5 | 5873 | 43696 | inactive
REG (GeneID 32274) | DRSC20273 | 63787 | 2.92e5 | – | 1992 | 11200 | inactive
Nmdar2 (GeneID 31107) | DRSC18183 | 1.21e5 | 2.46e5 | – | 4832 | 9595 | inactive
Nmdar2 (GeneID 31107) | DRSC18511 | 1.24e5 | 2.90e5 | – | 4448 | 11373 | inactive
Nmdar2 (GeneID 31107) | DRSC18569 | 1.04e5 | 2.13e5 | – | 3936 | 8345 | inactive
alphaTub84B (GeneID 40848) | DRSC12622 | 84737 | 83277 | – | 3692 | 2435 | inactive
SREBP (GeneID 40155) | DRSC11182 | 42140 | 39472 | – | 2080 | 1325 | inactive
CG13559 (GeneID 37720) | DRSC04197 | 78784 | 69827 | – | 2294 | 5798 | inactive
Apc2 (GeneID 42871) | DRSC14115 | 1.25e5 | 60471 | – | 5121 | 2869 | inactive
CG11600 (GeneID 41555) | DRSC14332 | 81392 | 1.18e5 | – | 3036 | 3236 | inactive
Hph (GeneID 40633) | DRSC12164 | 1.12e5 | 1.31e5 | – | 4624 | 4675 | inactive
Hph (GeneID 40633) | DRSC12251 | 63499 | 90521 | – | 2640 | 3094 | inactive
CG31391 (GeneID 41280) | DRSC16047 | 49888 | 1.23e5 | – | 1808 | 3641 | inactive
Cpr65Ay (GeneID 5740348) | DRSC08796 | 1.23e5 | 1.92e5 | – | 3424 | 7417 | inactive
Hap40 (GeneID 32507) | DRSC20085 | 1.05e5 | 78470 | – | 2041 | 1922 | inactive
Obp83ef (GeneID 40747) | DRSC12268 | 88768 | 1.00e5 | – | 3282 | 3226 | inactive
Gs1 (GeneID 33172) | DRSC00753 | 1.65e5 | 1.03e5 | – | 5178 | 3965 | inactive
Bet3 (GeneID 39090) | DRSC10388 | 70493 | 41933 | 53504 | 5469 | 4753 | inactive

Reformatted: entries from further up
Swip-1 (GeneID 35158) [DRSC02083] → firefly Hh reporter signal, replicate 1: 1.45e5; firefly Hh reporter signal, replicate 2: 1.42e5; Renilla reference signal, replicate 1: 5366; Renilla reference signal, replicate 2: 5424; call: inactive
Swip-1 (GeneID 35158) [DRSC02084] → firefly Hh reporter signal, replicate 1: 1.23e5; firefly Hh reporter signal, replicate 2: 44658; Renilla reference signal, replicate 1: 3169; Renilla reference signal, replicate 2: 4641; call: inactive
CG13248 (GeneID 40254) [DRSC11696] → firefly Hh reporter signal, replicate 1: 1.05e5; firefly Hh reporter signal, replicate 2: 1.11e5; Renilla reference signal, replicate 1: 3588; Renilla reference signal, replicate 2: 3075; call: inactive
CG34309 (GeneID 5740636) [DRSC14838] → firefly Hh reporter signal, replicate 1: 1.28e5; firefly Hh reporter signal, replicate 2: 82505; Renilla reference signal, replicate 1: 3572; Renilla reference signal, replicate 2: 1920; call: inactive
Or2a (GeneID 31207) [DRSC18690] → firefly Hh reporter signal, replicate 1: 74832; firefly Hh reporter signal, replicate 2: 1.99e5; Renilla reference signal, replicate 1: 1450; Renilla reference signal, replicate 2: 7842; call: inactive
Mppe (GeneID 36285) [DRSC07296] → firefly Hh reporter signal, replicate 1: 57216; firefly Hh reporter signal, replicate 2: 55346; Renilla reference signal, replicate 1: 3186; Renilla reference signal, replicate 2: 2113; call: inactive
Ggamma30A (GeneID 45234) [DRSC02715] → firefly Hh reporter signal, replicate 1: 78608; firefly Hh reporter signal, replicate 2: 48192; Renilla reference signal, replicate 1: 2472; Renilla reference signal, replicate 2: 4387; call: inactive

Further results follow:
gene | amplicon | firefly Hh reporter signal, replicate 1 | firefly Hh reporter signal, replicate 2 | firefly Hh reporter signal, replicate 3 | Renilla reference signal, replicate 1 | Renilla reference signal, replicate 2 | call
CG6927 (GeneID 31419) | DRSC18407 | 1.09e5 | 78371 | – | 2245 | 1705 | inactive
Klp3A (GeneID 31240) | DRSC18676 | 1.39e5 | 1.17e5 | – | 3109 | 4999 | inactive
RhoBTB (GeneID 40249) | DRSC11877 | 73484 | 56656 | – | 2771 | 2320 | inactive
l(2)03659 (GeneID 47905) | DRSC07269 | 1.49e5 | 69232 | – | 3712 | 5858 | inactive
l(2)03659 (GeneID 47905) | DRSC07638 | 1.20e5 | 38343 | – | 3144 | 3308 | inactive
acs (GeneID 38264) | DRSC08185 | 96999 | 30444 | – | 4148 | 3079 | inactive
Unc50 (GeneID 41029) | DRSC16561 | 55783 | 91987 | – | 2379 | 2758 | inactive
Alg-2 (GeneID 3355106) | DRSC07799 | 78745 | 39433 | – | 3090 | 3078 | inactive
CG8910 (GeneID 36896) | DRSC07414 | 65380 | 37831 | – | 2112 | 3475 | inactive
Incenp (GeneID 35649) | DRSC06116 | 1.53e5 | 1.14e5 | – | 6124 | 4727 | inactive
CG4596 (GeneID 41312) | DRSC15608 | 64868 | 1.39e5 | – | 1852 | 4439 | inactive
ICA69 (GeneID 40331) | DRSC11621 | 1.14e5 | 69804 | – | 4379 | 2887 | inactive
rho-6 (GeneID 34640) | DRSC02588 | 1.11e5 | 69924 | – | 3364 | 6608 | inactive
Det (GeneID 42077) | DRSC14489 | 90010 | 96021 | – | 1968 | 8020 | inactive
Cftr (GeneID 42928) | DRSC15872 | 1.15e5 | 94944 | – | 5576 | 4073 | inactive
NijB (GeneID 40057) | DRSC09850 | 6.96e5 | 1.18e5 | – | 4241 | 4241 | inactive
CG6013 (GeneID 42286) | DRSC15947 | 1.44e5 | 1.04e5 | – | 5908 | 4088 | inactive
CG14817 (GeneID 31145) | DRSC18547 | 87437 | 2.42e5 | – | 3757 | 8067 | inactive
CG7379 (GeneID 42140) | DRSC16237 | 1.72e5 | 1.13e5 | – | 7216 | 4432 | inactive
CG1840 (GeneID 32150) | DRSC19806 | 1.28e5 | 1.02e5 | – | 2971 | 2403 | inactive
